Publication PMC5414350
These are yes or no findings as the source states them, for the method shown. Some results given as binding are weak or reduced against the parent protein; the word gives no strength.

Target: Ms2 (=PG5_(P1593S)) protein (Triticum aestivum (common wheat))
Assay: two-hybrid; pairwise yeast two-hybrid with AD (pGADT7) and BD (pGBKT7) fusions; DDO, TDO and QDO media

## Ms2 (=PG5_(P1593S)) protein (from UniProt A0A1D5Y5U2 1-293)
  binding: binds
